{"sequences": {"note": "By UniProt entry, the sequences of proteins in these tests, tags left out. Where a name states a change or a piece, a line headed by the entry shows the natural chain unless it says otherwise.", "UniProt O94763, whole entry": "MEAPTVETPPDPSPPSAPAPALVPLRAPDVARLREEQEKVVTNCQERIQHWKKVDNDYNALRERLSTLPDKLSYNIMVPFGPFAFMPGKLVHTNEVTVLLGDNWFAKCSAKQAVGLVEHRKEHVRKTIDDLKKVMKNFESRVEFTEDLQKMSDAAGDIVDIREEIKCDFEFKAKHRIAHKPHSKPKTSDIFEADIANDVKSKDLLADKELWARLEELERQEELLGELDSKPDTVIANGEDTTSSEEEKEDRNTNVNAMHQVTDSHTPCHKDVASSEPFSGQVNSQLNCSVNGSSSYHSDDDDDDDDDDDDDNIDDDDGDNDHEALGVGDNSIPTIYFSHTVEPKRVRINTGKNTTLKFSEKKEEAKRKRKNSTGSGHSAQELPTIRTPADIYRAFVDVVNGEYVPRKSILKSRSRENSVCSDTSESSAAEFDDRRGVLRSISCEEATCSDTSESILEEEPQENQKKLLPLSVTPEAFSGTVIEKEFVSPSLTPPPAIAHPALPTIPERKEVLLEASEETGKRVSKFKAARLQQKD", "UniProt P98194": "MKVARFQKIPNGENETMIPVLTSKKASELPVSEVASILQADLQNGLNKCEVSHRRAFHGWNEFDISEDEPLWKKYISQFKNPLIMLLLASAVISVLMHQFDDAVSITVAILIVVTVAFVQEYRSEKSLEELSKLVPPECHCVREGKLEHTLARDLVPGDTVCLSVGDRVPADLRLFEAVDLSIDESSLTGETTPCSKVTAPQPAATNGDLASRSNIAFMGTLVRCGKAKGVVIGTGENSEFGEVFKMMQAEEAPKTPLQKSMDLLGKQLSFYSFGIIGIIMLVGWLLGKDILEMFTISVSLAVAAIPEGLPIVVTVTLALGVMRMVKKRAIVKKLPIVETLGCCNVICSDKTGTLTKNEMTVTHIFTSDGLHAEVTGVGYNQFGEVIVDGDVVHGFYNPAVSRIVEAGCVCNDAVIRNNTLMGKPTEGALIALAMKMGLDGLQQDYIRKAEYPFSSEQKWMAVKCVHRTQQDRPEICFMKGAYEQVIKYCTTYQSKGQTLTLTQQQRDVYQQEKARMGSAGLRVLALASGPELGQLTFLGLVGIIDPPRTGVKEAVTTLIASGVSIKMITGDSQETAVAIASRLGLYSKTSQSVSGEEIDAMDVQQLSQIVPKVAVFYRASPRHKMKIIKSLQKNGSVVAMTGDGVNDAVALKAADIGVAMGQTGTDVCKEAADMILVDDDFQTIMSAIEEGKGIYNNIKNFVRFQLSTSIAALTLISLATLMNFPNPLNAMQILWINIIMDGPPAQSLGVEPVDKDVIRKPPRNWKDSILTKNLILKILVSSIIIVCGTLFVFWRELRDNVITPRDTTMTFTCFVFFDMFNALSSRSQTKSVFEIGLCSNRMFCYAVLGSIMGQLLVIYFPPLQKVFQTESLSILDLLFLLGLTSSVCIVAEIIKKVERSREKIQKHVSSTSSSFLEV", "UniProt Q5T2E6": "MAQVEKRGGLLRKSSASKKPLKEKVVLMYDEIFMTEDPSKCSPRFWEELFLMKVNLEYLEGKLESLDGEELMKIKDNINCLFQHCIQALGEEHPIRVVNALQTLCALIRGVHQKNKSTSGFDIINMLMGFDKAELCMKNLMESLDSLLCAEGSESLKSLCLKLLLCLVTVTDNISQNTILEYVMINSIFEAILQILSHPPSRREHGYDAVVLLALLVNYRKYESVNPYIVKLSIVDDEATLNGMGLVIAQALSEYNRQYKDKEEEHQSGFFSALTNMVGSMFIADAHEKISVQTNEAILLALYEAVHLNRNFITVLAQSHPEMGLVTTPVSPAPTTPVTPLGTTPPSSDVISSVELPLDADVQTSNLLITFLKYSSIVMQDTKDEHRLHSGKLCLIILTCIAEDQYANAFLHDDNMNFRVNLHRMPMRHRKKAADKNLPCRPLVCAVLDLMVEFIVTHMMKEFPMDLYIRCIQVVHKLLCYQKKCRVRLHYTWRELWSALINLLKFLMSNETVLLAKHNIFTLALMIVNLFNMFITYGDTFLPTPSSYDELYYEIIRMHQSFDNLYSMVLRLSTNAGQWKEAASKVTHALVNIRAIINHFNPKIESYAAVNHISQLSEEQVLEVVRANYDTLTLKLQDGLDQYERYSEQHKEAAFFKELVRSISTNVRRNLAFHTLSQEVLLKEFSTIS", "UniProt Q9Y276": "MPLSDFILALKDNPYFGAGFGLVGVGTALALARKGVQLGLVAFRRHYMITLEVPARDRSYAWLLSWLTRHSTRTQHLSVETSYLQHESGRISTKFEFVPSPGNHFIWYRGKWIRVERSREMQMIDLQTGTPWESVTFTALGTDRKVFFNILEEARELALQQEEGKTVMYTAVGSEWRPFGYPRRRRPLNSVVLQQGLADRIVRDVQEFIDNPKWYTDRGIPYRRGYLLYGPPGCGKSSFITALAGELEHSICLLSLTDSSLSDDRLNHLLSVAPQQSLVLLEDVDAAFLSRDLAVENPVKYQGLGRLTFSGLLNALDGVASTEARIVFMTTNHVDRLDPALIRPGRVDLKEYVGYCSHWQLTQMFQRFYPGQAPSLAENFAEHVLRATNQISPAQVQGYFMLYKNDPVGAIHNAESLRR", "UniProt Q14CX7, whole entry": "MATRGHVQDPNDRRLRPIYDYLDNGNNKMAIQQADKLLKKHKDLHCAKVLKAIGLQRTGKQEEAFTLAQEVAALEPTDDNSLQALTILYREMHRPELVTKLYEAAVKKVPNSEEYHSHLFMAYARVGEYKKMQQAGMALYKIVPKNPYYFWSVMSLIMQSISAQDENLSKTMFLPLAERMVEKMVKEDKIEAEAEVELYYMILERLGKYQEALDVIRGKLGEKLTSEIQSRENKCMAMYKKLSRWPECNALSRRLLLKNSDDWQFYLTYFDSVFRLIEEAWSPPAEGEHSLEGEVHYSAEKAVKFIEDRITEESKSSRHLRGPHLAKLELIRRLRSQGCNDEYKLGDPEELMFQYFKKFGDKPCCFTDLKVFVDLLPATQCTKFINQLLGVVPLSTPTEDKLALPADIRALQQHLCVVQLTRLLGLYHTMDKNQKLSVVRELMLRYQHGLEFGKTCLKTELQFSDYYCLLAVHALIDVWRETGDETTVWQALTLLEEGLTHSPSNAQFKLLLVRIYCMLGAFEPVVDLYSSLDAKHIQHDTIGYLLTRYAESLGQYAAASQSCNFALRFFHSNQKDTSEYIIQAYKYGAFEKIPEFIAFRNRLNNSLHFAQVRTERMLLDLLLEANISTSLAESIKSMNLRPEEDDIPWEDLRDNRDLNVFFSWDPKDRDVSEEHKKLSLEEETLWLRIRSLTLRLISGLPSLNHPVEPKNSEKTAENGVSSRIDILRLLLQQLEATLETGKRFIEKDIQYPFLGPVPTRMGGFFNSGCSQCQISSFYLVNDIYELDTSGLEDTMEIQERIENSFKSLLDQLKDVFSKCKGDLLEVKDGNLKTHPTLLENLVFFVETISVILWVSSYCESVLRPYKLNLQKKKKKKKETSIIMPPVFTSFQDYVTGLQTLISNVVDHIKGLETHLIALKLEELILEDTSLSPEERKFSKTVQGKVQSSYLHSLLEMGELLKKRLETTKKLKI", "UniProt P06576, whole entry": "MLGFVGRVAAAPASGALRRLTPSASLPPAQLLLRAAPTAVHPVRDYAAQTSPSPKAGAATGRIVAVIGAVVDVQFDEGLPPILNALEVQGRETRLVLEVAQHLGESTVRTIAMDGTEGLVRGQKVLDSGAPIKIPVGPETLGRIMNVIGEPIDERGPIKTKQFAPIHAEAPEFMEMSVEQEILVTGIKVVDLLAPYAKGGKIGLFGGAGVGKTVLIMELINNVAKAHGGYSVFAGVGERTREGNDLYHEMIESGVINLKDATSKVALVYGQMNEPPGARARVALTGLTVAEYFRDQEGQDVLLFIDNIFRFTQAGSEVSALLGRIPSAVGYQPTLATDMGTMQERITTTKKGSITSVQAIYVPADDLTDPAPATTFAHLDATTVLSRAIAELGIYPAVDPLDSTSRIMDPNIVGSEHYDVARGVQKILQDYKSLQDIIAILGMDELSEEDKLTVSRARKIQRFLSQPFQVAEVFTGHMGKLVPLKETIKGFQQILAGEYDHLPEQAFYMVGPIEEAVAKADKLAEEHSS", "UniProt P54252": "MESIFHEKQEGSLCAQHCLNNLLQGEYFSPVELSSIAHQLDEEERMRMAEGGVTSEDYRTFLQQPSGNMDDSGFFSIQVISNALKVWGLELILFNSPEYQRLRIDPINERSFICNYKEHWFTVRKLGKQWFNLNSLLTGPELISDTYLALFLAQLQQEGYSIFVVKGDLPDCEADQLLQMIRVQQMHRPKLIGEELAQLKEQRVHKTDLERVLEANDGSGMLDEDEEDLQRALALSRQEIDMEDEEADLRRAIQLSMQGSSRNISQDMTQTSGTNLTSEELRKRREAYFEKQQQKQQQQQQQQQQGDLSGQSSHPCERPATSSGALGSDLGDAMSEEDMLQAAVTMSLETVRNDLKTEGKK", "UniProt Q14137": "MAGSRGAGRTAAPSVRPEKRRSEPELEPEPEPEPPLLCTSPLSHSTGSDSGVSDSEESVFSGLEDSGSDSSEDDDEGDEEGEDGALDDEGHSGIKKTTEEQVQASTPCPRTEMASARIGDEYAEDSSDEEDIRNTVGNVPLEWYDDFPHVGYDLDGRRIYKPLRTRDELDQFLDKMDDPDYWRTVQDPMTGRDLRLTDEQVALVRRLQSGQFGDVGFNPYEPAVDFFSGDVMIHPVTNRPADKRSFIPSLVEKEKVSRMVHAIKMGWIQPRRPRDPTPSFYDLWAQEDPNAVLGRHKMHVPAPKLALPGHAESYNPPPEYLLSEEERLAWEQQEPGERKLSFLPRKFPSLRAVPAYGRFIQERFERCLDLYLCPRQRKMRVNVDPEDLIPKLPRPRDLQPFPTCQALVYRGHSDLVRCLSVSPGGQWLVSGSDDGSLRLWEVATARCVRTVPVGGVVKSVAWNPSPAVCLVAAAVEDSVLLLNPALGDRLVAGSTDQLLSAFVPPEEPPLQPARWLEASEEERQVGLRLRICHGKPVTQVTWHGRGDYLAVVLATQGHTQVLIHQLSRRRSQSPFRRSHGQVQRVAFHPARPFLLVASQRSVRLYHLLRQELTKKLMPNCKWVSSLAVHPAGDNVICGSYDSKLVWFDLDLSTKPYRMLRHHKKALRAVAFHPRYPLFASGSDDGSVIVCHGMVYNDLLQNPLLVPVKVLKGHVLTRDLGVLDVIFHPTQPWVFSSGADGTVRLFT", "UniProt Q99766": "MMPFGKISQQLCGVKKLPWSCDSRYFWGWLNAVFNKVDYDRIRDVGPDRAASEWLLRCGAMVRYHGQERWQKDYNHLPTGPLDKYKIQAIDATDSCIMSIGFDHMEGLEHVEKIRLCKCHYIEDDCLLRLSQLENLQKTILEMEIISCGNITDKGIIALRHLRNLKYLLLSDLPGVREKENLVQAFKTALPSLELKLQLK", "UniProt Q9NQ11": "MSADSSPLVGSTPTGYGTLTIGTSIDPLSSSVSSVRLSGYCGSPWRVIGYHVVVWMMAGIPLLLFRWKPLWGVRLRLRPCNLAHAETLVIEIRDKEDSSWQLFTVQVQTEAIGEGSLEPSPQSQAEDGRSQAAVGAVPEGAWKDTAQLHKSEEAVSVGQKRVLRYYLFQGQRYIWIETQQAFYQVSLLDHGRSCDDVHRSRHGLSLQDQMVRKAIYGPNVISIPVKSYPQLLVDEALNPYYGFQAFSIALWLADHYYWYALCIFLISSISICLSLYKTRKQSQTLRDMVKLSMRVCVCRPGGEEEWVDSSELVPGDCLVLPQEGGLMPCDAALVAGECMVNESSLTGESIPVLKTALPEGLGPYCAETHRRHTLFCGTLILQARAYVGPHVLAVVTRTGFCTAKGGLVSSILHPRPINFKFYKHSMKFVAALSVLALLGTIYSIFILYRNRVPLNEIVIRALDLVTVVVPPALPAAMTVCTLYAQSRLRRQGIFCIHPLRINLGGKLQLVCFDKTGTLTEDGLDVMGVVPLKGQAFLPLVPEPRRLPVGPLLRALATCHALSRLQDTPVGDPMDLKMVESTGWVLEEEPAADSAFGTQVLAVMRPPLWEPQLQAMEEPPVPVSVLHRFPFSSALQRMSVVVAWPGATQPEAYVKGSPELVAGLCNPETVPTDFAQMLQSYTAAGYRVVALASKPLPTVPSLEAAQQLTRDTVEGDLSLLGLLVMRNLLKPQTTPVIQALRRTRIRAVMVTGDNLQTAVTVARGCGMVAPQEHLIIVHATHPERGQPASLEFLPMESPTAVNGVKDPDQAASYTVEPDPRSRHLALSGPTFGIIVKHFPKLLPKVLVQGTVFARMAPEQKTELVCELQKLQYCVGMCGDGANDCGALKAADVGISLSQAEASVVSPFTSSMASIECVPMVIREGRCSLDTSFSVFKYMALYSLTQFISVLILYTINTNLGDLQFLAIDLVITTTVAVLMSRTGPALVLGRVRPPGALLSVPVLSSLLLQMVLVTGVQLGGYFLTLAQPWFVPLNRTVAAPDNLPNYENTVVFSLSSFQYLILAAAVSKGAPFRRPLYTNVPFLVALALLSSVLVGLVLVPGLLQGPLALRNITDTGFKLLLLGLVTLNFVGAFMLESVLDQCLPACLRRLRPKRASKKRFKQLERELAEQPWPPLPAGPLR"}, "source": "the supplement of paper PMC7666118", "note": "Some of the results follow."}
{"compound": "COc1ccc(Cn2ccc3cc(C)c(C(=O)NO)cc32)cc1", "experiment": "dose-dependent thermal stabilisation call (2D-TPP, DLPTP, 10% FDR) (binary (1 = stabilised)); higher = stabilised by the compound", "settings": "system: HL-60 intact cells; concentration range 0.04-10 µM", "method": "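2D thermal proteome profiling in intact HL-60 cells treated with BRD-3811 (0, 0.04, 0.29, 2, 10 uM) for 90 min at 37 C, then heated 3 min at one of 12 temperatures (42-63.9 C). Soluble protein was quantified by TMT10 MS. The value is the DLPTP call of the paper: dose-dependent thermal stabilisation over all temperatures at 10% FDR (F-test of a dose-response against a flat model); one experiment, one call per tested protein.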"}
{"target": "C10ORF137 (UniProt Q3B7T1)", "dose-dependent thermal stabilisation call": "inactive: 0"}
{"target": "ATP6V0A2 (UniProt Q9Y487)", "dose-dependent thermal stabilisation call": "inactive: 0"}
{"target": "C19ORF2 (UniProt O94763)", "dose-dependent thermal stabilisation call": "inactive: 0"}
{"target": "ATP2C1 (UniProt P98194)", "dose-dependent thermal stabilisation call": "inactive: 0"}
{"target": "ATOX1 (UniProt O00244)", "dose-dependent thermal stabilisation call": "inactive: 0"}
{"target": "BIRC2 (UniProt Q13490)", "dose-dependent thermal stabilisation call": "inactive: 0"}
{"target": "BCAT2 (UniProt O15382)", "dose-dependent thermal stabilisation call": "inactive: 0"}
{"target": "C17ORF85 (UniProt Q53F19)", "dose-dependent thermal stabilisation call": "inactive: 0"}
{"target": "C12ORF73 (UniProt Q69YU5)", "dose-dependent thermal stabilisation call": "inactive: 0"}
{"target": "C19ORF12 (UniProt Q9NSK7)", "dose-dependent thermal stabilisation call": "inactive: 0"}
{"target": "C14ORF156 (UniProt Q9GZT3)", "dose-dependent thermal stabilisation call": "active: 1"}
{"target": "BSDC1 (UniProt Q9NW68)", "dose-dependent thermal stabilisation call": "inactive: 0"}
{"target": "BLOC1S3 (UniProt Q6QNY0)", "dose-dependent thermal stabilisation call": "inactive: 0"}
{"target": "C10ORF76 (UniProt Q5T2E6)", "dose-dependent thermal stabilisation call": "inactive: 0"}
{"target": "ATXN2L (UniProt Q8WWM7)", "dose-dependent thermal stabilisation call": "inactive: 0"}
{"target": "BAG5 (UniProt Q9UL15)", "dose-dependent thermal stabilisation call": "inactive: 0"}
{"target": "C11ORF67 (UniProt Q9H7C9)", "dose-dependent thermal stabilisation call": "inactive: 0"}
{"target": "BAT2D1 (UniProt Q9Y520)", "dose-dependent thermal stabilisation call": "inactive: 0"}
{"target": "BCS1L (UniProt Q9Y276)", "dose-dependent thermal stabilisation call": "inactive: 0"}
{"target": "BRAF (UniProt P15056)", "dose-dependent thermal stabilisation call": "inactive: 0"}
{"target": "C19ORF59 (UniProt Q8IX19)", "dose-dependent thermal stabilisation call": "inactive: 0"}
{"target": "ATP5D (UniProt P30049)", "dose-dependent thermal stabilisation call": "inactive: 0"}
{"target": "ATP5E (UniProt P56381)", "dose-dependent thermal stabilisation call": "inactive: 0"}
{"target": "BCAT1 (UniProt P54687)", "dose-dependent thermal stabilisation call": "inactive: 0"}
{"target": "BAD (UniProt Q92934)", "dose-dependent thermal stabilisation call": "inactive: 0"}
{"target": "C12ORF10 (UniProt Q9HB07)", "dose-dependent thermal stabilisation call": "inactive: 0"}
{"target": "C12ORF30 (UniProt Q14CX7)", "dose-dependent thermal stabilisation call": "inactive: 0"}
{"target": "ATP5B (UniProt P06576)", "dose-dependent thermal stabilisation call": "inactive: 0"}
{"target": "ATXN3 (UniProt P54252)", "dose-dependent thermal stabilisation call": "inactive: 0"}
{"target": "BOP1 (UniProt Q14137)", "dose-dependent thermal stabilisation call": "inactive: 0"}
{"target": "ATP1B1 (UniProt P05026)", "dose-dependent thermal stabilisation call": "inactive: 0"}
{"target": "ATP6V0D1 (UniProt P61421)", "dose-dependent thermal stabilisation call": "inactive: 0"}
{"target": "BID (UniProt P55957)", "dose-dependent thermal stabilisation call": "inactive: 0"}
{"target": "BCL7C (UniProt Q8WUZ0)", "dose-dependent thermal stabilisation call": "inactive: 0"}
{"target": "ATP5S (UniProt Q99766)", "dose-dependent thermal stabilisation call": "inactive: 0"}
{"target": "ATP13A2 (UniProt Q9NQ11)", "dose-dependent thermal stabilisation call": "inactive: 0"}
